These are yes or no findings as the source states them, for the method shown. For some of these results: Binding seen in cells or lysates may run through a third protein. Some entries that bind do so weakly or less than the wild type.
T1: HAMLET (Human Alpha-lactalbumin Made LEthal to Tumor cells) (human) (UniProt P00709)
T1 sequence: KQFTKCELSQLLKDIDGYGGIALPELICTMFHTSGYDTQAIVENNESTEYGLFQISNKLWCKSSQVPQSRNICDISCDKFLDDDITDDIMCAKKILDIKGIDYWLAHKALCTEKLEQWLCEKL

Sequences of proteins named here, by UniProt entry; tags and fusion partners are left off. A change or cut given only in a name is not applied to a line headed by its entry.
UniProt P12814: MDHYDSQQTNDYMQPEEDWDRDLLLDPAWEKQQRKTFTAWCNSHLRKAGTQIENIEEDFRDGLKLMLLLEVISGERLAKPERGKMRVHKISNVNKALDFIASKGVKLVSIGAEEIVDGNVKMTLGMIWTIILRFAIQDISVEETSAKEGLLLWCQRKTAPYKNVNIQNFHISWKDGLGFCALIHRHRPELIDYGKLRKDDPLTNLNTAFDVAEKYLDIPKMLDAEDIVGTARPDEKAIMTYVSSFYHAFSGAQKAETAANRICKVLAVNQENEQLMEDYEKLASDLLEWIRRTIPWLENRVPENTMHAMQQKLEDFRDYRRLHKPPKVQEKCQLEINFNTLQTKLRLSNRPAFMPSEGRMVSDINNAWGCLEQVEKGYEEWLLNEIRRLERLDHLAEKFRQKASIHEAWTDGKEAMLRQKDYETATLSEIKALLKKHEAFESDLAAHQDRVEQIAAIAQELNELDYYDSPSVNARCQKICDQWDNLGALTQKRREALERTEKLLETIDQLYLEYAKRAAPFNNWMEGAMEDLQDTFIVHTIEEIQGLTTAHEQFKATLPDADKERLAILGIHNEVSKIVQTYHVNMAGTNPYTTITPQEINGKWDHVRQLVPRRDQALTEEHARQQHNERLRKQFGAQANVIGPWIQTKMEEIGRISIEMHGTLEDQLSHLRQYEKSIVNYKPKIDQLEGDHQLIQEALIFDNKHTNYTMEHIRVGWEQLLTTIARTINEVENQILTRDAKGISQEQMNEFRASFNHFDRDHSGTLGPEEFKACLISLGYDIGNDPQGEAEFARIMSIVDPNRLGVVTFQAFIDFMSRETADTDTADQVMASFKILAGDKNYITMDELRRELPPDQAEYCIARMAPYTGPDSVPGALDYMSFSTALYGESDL
UniProt P05556: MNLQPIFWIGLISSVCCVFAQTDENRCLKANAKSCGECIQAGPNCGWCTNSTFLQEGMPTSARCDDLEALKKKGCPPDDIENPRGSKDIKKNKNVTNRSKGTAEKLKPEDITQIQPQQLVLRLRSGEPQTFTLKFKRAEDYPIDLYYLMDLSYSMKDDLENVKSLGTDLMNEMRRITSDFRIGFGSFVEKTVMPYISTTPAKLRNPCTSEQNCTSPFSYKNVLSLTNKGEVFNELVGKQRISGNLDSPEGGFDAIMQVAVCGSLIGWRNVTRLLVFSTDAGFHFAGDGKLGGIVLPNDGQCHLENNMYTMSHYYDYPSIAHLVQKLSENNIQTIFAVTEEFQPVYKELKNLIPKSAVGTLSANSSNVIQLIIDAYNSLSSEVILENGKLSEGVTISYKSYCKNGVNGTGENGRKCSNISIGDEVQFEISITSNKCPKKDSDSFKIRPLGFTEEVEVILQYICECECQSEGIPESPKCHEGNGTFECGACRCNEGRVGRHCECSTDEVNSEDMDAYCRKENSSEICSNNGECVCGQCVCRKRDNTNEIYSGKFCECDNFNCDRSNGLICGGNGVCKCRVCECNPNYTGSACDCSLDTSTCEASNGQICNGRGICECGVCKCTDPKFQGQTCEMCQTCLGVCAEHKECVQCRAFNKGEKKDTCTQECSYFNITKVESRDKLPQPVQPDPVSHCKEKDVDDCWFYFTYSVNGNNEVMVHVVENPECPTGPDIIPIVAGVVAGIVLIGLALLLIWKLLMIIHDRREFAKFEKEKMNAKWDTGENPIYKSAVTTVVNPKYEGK

B1: HAMLET (Human Alpha-lactalbumin Made LEthal to Tumor cells) (protein, UniProt P00709 20-142)
chain: KQFTKCELSQLLKDIDGYGGIALPELICTMFHTSGYDTQAIVENNESTEYGLFQISNKLWCKSSQVPQSRNICDISCDKFLDDDITDDIMCAKKILDIKGIDYWLAHKALCTEKLEQWLCEKL

Key:
[1] = biological target: T1, HAMLET (Human Alpha-lactalbumin Made LEthal to Tumor cells) (human); test: co-IP; A549 cells treated with HAMLET (15 minutes, 35 µM), NP-40 lysis buffer; precipitation with anti-α-lactalbumin antibodies and Protein G-Sepharose, 4°C overnight; blots for α-actinin-4 and α-actinin-1
α-actinin-4 (human) [2] = biological target: α-actinin-4 (human) (UniProt O43707); test: co-IP; total extracts of adherent A549 cells, untreated or HAMLET-treated (35 µM, 3 hours), Brij 96 lysis buffer; precipitation with anti-α-actinin-4 antibodies; blot for β1 integrin
α-actinin-4 (human) [3] = biological target: α-actinin-4 (human) (UniProt O43707); test: far-Western, overlay or dot blot; A549 membrane fraction (10 µg) separated by SDS-PAGE and blotted onto PVDF; overlaid overnight with 142 µM HAMLET in NN8 buffer pH 8.7; bound HAMLET detected with anti-bovine α-lactalbumin antibodies; band identified by MALDI-TOF; only the binder purified

Molecule | binding [1] | also measured
α-actinin-1 (from UniProt P12814 1-892) | binds | –
α-actinin-4 (from UniProt O43707 1-911) | binds | –
β1 integrin (from UniProt P05556 21-798) (receptor) | – | binding (α-actinin-4 (human) [2]): binds
B1 | – | binding (α-actinin-4 (human) [3]): binds

Source: publication PMC3050841
